Drawing on paper PMC6830099, this text covers binding for two molecules.

Amino acid sequences for entries named in this document (tags omitted).
UniProt Q99728: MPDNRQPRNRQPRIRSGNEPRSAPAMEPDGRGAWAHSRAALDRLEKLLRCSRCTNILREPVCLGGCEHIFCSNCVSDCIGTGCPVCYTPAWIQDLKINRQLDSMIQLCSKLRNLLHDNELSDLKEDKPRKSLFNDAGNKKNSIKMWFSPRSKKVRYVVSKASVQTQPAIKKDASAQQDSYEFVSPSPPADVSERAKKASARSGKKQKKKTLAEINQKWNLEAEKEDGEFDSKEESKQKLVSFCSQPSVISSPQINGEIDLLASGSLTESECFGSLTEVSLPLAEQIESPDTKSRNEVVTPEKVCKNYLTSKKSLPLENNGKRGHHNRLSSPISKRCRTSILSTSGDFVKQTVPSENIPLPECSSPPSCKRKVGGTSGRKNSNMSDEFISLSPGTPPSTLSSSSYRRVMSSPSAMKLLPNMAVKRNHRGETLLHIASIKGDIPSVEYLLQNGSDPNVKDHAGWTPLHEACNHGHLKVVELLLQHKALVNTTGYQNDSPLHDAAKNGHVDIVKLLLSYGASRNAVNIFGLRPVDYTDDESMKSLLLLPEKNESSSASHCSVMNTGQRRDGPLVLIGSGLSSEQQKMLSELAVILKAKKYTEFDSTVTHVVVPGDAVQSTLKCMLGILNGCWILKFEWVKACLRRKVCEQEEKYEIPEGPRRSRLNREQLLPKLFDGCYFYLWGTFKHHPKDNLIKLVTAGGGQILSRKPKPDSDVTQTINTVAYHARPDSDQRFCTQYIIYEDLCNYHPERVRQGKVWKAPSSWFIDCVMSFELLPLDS
UniProt Q12888: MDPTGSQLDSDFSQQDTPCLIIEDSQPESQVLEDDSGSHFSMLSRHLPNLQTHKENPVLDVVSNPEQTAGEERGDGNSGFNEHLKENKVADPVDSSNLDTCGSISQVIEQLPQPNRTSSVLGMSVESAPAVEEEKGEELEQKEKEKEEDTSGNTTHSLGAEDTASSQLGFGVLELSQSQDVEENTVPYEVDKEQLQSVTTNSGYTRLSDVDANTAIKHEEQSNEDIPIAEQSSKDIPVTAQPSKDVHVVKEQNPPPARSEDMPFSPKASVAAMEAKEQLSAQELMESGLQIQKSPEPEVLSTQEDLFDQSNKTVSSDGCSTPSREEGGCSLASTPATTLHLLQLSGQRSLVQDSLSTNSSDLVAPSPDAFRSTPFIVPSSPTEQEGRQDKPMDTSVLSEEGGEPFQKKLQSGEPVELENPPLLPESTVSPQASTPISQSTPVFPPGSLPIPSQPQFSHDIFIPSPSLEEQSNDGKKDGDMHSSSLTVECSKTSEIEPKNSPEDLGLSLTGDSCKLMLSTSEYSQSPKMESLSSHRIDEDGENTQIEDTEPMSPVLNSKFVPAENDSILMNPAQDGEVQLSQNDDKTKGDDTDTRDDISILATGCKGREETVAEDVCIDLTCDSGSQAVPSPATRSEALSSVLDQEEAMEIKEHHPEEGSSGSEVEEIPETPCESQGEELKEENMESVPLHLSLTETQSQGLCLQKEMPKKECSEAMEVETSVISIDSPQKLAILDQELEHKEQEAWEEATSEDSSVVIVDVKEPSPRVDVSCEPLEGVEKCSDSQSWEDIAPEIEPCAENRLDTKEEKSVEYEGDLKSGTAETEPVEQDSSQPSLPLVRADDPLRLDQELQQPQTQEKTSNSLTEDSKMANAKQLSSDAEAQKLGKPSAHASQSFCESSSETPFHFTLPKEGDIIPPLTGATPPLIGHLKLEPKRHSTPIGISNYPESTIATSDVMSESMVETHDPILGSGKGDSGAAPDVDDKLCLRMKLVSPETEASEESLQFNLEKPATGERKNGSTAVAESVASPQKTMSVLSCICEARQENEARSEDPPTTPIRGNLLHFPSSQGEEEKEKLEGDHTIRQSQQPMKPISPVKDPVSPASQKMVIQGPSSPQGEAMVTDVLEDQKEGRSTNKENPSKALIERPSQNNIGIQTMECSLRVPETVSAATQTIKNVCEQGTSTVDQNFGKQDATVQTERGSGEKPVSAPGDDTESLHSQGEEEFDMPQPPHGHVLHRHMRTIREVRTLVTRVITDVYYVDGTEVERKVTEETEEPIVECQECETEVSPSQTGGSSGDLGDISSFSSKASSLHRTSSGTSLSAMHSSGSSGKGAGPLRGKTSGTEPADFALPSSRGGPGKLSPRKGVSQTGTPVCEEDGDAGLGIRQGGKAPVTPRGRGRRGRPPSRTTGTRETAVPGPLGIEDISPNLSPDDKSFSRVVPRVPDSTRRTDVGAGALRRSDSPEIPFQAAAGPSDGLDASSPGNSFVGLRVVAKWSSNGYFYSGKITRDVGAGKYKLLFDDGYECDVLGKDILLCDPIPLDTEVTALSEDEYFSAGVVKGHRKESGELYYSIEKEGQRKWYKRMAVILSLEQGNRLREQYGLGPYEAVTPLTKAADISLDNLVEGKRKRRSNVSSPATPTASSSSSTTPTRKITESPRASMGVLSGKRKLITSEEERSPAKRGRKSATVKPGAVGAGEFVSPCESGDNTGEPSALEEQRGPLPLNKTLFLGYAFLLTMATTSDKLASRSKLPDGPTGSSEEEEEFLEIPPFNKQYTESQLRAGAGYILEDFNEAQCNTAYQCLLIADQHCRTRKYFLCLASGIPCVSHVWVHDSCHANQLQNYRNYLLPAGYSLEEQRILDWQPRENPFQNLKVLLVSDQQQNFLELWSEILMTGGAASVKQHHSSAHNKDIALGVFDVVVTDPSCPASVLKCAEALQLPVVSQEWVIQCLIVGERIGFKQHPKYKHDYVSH

One assay concerns the target T1, GFP-WIP1 (UniProt O15297).
T1 sequence: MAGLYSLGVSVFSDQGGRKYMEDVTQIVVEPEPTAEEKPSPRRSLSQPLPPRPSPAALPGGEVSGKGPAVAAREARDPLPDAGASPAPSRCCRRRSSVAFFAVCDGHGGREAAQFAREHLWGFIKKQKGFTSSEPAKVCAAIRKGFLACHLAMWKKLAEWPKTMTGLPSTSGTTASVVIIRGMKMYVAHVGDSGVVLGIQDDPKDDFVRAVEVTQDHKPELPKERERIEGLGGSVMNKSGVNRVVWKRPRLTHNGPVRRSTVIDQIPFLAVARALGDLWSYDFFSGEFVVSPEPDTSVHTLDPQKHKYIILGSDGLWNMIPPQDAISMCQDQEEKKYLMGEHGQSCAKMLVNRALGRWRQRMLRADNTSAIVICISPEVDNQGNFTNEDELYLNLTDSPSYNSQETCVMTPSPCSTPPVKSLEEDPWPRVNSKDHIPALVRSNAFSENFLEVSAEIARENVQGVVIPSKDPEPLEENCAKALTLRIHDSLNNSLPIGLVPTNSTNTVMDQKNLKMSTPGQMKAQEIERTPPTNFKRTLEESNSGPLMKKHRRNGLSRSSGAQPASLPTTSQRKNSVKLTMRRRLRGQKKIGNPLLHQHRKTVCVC
Briefly: co-IP; GFP-tagged bait precipitated with GFP-Trap beads (1 h) from lysates of transfected HEK293 cells; lysis buffer 50 mM Tris pH 8.0, 120 mM NaCl, 1% Tween-20, 0.1% NP-40, with benzonase and EtBr; 4 washes; Western blotting; cells untreated, or exposed to 3 Gy of IR and collected at indicated times (Figure 4B).

The next assay addresses GFP-BARD1 (UniProt Q99728). Described as above.

These are yes or no findings as the source states them, for the method shown. In cells and extracts the contact can be indirect. Some binding calls cover weakened binding; strength is not graded here. Sequences can lack the tags named with a protein.

For “TP53-binding protein 1 (53BP1), endogenous in HEK293 (from UniProt Q12888 1-1972)”, in the assay with GFP-WIP1, the binding result is “binds”.

B1: Flag-WIP1 (enzyme, UniProt O15297 1-605)
chain: T1 sequence
Take B1: the binding entry with GFP-BARD1 is given as “binds”.
